Source: patent US20040219584
Changes are numbered by the printed parent chain. Protein sequences can lack the tags named with them. For some assays here: Construct, isoform or probe ends are uncertain for at least one entry. For some assays here: No signal at the amounts used counts as a negative.

Assays:
[1] = tested on: T1, BpmI M1 methylase (Bacillus pumilus); assay: activity in cells; conditions: protein in cells, only the site is given
T1 sequence (limits assumed): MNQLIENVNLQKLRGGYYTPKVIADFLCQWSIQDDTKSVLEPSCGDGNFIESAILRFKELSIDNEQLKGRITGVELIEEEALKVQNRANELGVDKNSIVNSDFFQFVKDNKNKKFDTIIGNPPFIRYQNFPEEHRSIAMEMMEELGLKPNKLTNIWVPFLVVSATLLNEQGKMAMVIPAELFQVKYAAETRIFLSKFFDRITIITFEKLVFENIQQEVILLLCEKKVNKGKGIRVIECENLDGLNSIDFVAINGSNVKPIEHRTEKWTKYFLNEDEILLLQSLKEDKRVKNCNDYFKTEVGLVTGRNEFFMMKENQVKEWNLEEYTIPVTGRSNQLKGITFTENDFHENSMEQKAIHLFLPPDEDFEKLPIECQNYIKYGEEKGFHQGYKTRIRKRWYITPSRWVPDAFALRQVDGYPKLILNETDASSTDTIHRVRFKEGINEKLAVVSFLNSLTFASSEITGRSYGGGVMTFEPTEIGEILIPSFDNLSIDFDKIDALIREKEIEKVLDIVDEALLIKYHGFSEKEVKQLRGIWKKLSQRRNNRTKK

[2] = tested on: T2, BpmI D74A (clone #4) D74A,E1007G (Bacillus pumilus); assay: activity in cells; conditions: methylation proficient (partial plasmid resistance to BpmI); endonuclease activity abolished; protein in a lysate after overexpression; only the site is given
T2 sequence (limits assumed): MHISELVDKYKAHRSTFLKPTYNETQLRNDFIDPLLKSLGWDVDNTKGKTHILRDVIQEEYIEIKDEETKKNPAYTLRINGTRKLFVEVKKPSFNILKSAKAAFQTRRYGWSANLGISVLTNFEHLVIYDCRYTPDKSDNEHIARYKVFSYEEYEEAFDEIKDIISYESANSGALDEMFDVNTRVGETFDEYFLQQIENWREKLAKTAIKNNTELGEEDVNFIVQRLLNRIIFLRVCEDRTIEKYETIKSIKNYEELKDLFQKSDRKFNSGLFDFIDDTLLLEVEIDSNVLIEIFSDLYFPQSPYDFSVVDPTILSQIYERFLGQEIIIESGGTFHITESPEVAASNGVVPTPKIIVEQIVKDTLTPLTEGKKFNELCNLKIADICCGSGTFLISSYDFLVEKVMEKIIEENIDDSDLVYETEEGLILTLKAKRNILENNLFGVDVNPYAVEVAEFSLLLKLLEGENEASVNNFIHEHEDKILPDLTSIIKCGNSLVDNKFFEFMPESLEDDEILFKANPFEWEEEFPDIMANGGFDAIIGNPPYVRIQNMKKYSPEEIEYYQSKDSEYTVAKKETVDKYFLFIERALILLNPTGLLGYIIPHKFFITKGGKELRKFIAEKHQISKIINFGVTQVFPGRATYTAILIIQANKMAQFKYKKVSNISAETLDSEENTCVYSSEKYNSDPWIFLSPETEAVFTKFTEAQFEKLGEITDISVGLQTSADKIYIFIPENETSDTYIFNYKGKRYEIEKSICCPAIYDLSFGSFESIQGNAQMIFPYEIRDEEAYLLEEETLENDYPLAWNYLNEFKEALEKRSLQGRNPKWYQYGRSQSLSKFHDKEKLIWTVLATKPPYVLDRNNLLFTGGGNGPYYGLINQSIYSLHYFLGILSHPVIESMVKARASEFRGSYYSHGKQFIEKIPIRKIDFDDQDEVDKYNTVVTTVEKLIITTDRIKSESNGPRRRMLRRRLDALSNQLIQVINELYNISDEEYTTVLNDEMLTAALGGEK

[3] = tested on: T3, BpmI E88A (Bacillus pumilus); assay: activity in cells; conditions: methylase proficient; endonuclease deficient; protein in a lysate after overexpression; only the site is given
T3 sequence (limits assumed): T2 sequence (limits assumed) with A74D, E88A, G1007E

[4] = tested on: T4, BpmI endonuclease-methylase (BpmIRM) (Bacillus pumilus); assay: enzyme reaction in vitro; conditions: lambda DNA substrate; 24,000 units per mg specific activity; purified recombinant protein
T4 sequence (limits assumed): T2 sequence (limits assumed) with A74D, G1007E

[5] = tested on: T5, BpmI-delta1 (methylase and specificity domains deleted) (Bacillus pumilus); assay: enzyme reaction in vitro; conditions: lambda DNA; only non-specific nuclease seen; protein in a lysate after overexpression
T5 sequence: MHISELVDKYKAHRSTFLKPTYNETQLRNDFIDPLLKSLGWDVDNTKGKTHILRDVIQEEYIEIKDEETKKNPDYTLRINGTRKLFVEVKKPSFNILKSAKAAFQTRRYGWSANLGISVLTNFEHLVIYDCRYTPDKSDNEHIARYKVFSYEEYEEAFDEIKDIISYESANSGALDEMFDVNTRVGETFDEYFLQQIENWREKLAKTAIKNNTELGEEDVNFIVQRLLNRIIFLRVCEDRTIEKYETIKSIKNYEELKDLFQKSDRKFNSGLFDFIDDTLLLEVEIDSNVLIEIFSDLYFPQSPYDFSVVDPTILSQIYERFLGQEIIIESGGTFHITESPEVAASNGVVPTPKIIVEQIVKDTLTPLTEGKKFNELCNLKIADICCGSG

[6] = tested on: T6, BpmI-delta2 (EcoRI fragment deletion, C-terminal 507 aa deleted) (Bacillus pumilus); assay: enzyme reaction in vitro; conditions: no BpmI endonuclease activity in induced extract; protein in a lysate after overexpression
T6 sequence: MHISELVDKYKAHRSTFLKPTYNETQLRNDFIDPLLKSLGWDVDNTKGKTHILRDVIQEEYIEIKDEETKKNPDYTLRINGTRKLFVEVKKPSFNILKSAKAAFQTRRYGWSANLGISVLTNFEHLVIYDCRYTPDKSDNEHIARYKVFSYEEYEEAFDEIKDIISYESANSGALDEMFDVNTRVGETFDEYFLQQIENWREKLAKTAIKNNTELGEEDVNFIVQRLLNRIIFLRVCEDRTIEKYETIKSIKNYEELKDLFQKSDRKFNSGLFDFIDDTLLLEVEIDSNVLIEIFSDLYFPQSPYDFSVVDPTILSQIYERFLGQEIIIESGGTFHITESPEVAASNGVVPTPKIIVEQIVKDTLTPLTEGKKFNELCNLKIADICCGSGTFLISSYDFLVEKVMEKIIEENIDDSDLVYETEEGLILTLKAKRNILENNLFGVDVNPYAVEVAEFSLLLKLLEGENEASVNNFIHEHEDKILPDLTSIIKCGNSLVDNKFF

[7] = tested on: T7, BpmI-delta3 (TRD deletion, HindIII fragment, C-terminal 193 aa deleted) (Bacillus pumilus); assay: enzyme reaction in vitro; conditions: no BpmI activity; non-specific nuclease activity displayed; protein in a lysate after overexpression
T7 sequence: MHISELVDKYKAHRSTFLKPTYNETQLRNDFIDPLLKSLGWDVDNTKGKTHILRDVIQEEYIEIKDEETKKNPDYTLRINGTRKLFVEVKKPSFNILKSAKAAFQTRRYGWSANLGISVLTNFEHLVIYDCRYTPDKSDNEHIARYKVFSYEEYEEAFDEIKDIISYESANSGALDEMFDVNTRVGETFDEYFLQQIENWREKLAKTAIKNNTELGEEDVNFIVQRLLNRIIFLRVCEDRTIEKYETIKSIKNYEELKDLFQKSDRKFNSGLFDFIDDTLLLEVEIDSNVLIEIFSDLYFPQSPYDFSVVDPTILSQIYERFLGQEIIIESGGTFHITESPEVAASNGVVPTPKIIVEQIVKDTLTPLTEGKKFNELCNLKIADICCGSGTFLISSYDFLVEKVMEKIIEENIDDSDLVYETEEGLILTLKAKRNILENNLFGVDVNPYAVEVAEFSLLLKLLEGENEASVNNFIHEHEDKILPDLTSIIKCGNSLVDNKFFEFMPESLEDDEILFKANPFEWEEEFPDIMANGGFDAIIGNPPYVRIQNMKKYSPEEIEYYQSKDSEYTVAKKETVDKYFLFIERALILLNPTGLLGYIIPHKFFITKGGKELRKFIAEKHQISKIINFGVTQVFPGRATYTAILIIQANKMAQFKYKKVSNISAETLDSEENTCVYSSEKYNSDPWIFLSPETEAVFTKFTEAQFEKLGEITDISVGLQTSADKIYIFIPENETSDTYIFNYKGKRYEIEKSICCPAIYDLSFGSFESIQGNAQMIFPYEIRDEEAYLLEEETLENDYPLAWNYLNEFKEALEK

CTCGAG (double strand) [XhoI site]
activity on this sequence ([1]; modifies XhoI site, proposed recognition CTNNAG): active

CTGGAG (double strand) [BpmI recognition site]
activity on this sequence [2]: active | activity on this sequence [3]: active | activity on this sequence ([1]; N6-adenine methylation in E. coli gives full resistance of plasmid to BpmI): active | activity on this sequence [4]: active | activity on this sequence [5]: not active | activity on this sequence [6]: not active | activity on this sequence [7]: not active
